One experiment relates to Escherichia coli. Kind of experiment: Antimicrobial activity against Escherichia coli at 10 ug. The experiment is classed as functional, organism-based.
A further experiment has as its system Pseudomonas aeruginosa. The experiment is described as follows: Antimicrobial activity against Pseudomonas aeruginosa at 10 ug. The experiment is classed as functional, organism-based.

In the case of GENTAMICIN, the figures for the inhibition zone (IZ) in the experiment on Escherichia coli and with Pseudomonas aeruginosa were 9 mm and 8 mm, respectively.
